{
  "source": "patent US20230101403A1",
  "about": "“METHOD OF TREATING OR AMELIORATING CANCERS DRIVEN BY RECEPTOR TYROSINE KINASE FUSION ONCOGENES, AND COMPOSITIONS FOR THE SAME” (THE TRUSTEES OF THE UNIVERSITY OF PENNSYLVANIA, priority 2021, published 2023)",
  "test_system": "ppErk, STE-1 cells",
  "assay": "EGF-induced ppErk induction in STE-1 cells",
  "settings": "EML4-ALK cancer cells, cell line not stated",
  "note": "At least one compound was matched to its structure with a doubt left.",
  "data": [
    {"molecule": "C[C@H]1Oc2cc(cnc2N)-c2c(nn(C)c2C#N)CN(C)C(=O)c2ccc(F)cc21", "note": "[lorlatinib]", "values": [
      {"measurement": "dynamic range modulation (ppErk response to EGF)", "result": "dynamic range modulation was also observed"}
    ]}
  ]
}
